No constants are given. Whether binding was seen depends on the method and setting. Binding seen in cells or lysates may run through a third protein. Some binding calls cover weakened binding; strength is not graded here.

Protein sequences, listed by entry. Tags and fused reporters are not part of them.
UniProt P15307: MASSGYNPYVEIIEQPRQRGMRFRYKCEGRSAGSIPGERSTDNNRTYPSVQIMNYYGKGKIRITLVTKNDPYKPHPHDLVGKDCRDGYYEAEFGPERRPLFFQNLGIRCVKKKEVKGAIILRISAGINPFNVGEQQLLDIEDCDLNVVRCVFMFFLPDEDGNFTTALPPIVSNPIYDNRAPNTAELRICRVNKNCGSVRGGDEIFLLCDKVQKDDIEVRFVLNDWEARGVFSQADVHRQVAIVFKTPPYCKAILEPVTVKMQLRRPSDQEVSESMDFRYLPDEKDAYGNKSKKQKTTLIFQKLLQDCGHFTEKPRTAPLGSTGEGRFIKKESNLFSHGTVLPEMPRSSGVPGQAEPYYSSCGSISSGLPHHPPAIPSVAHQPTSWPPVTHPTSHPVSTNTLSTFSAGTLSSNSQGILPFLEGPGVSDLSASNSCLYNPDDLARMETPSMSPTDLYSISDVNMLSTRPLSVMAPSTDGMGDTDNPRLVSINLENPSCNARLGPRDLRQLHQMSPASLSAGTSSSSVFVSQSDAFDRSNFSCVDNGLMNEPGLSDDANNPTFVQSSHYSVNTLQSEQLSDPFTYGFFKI
UniProt Q04207: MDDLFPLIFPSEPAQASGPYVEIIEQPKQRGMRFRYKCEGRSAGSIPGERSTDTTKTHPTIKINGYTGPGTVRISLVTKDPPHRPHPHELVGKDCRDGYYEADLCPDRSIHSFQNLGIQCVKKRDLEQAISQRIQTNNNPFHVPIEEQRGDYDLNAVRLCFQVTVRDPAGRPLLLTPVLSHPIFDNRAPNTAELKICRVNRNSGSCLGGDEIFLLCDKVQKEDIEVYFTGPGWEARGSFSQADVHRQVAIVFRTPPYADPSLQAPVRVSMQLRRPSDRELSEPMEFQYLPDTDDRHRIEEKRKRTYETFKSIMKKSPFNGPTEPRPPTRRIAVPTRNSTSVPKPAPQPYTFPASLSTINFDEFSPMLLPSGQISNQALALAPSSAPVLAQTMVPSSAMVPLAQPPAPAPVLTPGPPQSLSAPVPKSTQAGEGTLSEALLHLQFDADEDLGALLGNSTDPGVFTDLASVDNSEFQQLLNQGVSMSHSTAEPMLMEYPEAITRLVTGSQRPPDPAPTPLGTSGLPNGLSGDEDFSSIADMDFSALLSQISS

The experiment deals with c-Rel (REL proto-oncogene NF-kB subunit) (UniProt P15307). As to the kind of experiment: co-IP; lysate of fifty million cells in 1% Triton-X, 150 mM NaCl, 2 mM EDTA, 50 mM Tris-Cl pH 8, 0.5 mM DTT; IP with anti-c-Rel sc-71, anti-p65 sc-372, anti-RelB sc-226 or rabbit IgG on protein A/G agarose at 4 °C; western blot. (In general: Immunoblotting shows a protein as a band on a membrane.)

RelA (p65) (from UniProt Q04207 1-549): the binding entry is listed as “binds”.

(Values after article PMC12849452.)
